{
  "source": "patent US20140287985A1",
  "about": "“NOVEL USES OF ELAFIN” (Proteo Biotech AG, priority 2010, published 2014)",
  "system": "elastase",
  "assay": "Release of elastase inhibitory activity from polymerized bone cement in water",
  "data": [
    {"substance": "Elafin: Human anti-protease polypeptide of 57 amino acids, about 6 kDa (SEQ ID NO: 1); reversible inhibitor of neutrophil elastase and proteinase 3 (AQEPVKGPVSTKPGSCPIILIRCAMLNPPNRCLKDTDCPGIKKCCEGSCGMACFVPQ; listed as Homo sapiens)", "values": [
      {"measurement": "share of the added amount released", "setting": "bone cement in water, within the first three days", "value": "about 15%"},
      {"measurement": "release of active inhibitor from polymerized cement samples", "setting": "bone cement pieces incubated in water", "value": "Active olefin was released"}
    ]}
  ]
}
